Data taken from ChEMBL document CHEMBL3988442, “University of Dundee, Small-Polar-MMV Screening Library” (2021).

A: 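Whole-cell growth test on Mycobacterium tuberculosis, read after 4 days in a medium based on cholesterol and the lipid DPPC; the read-out is not stated. Compounds at 50 µM. The record gives no direction; compounds that gave an IC50 in retests scored well above the rest, so higher reads as more growth inhibition. Size under these conditions: about 69,000 compounds, about 370 of them at 50% or above in at least one test.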
B: 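Growth of Mycobacterium tuberculosis over 3 days (7H9 medium with glucose and tyloxapol); the read-out is not stated. Compounds at 50 µM. Direction is inferred from retests: higher values go with more growth inhibition. Size under these conditions: about 69,000 compounds, about 760 of them at 50% or above in at least one test.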

Results are given as percent effect. The record does not define 0% and 100%; most values in the screen are far below 50% and negative numbers occur (in some assays of this library far below -100). The compounds are a random part of those screened. Two or more numbers in one place are separate tests of the same structure; such repeats can differ widely.

compound	A	B
CC(C)(C)c1nc(CN2CCCC(Cn3cncn3)C2)cs1 (centres unmarked)	-27.39%	-2.989%
O=C(O)c1ccc(S(=O)(=O)Nc2ccccc2CC(F)(F)F)c(F)c1	4.006%	-23.77%
Cc1ccnn1CCC(=O)N(Cc1ccsc1)CC(C)C	-7.191%	0.009936%
Cc1cnn(CCNCc2c(C(C)C)nn(C)c2Cl)c1	-13.85% and -4.915%	-23.57%
Cc1cnc(C(=O)N2CCC3(CC2)CC(c2ccccc2)C(=O)N3)cn1 (centres unmarked)	-16.25%	-9.453% and -53.11%
CC1(C)CN(C(=O)CC2CCS(=O)(=O)CC2)C[C@]1(C)O	-1.327% and -7.023%	15.08%
CN1CCC/C1=N\S(=O)(=O)c1ccc(NC(=O)Cc2cccs2)cc1	-5.868%	6.012%
COc1cccc(N2CCN(Cc3cc(C)cc(F)c3)CC2=O)c1	3.667%	14.81%
Cn1cc(NC(=O)c2cccc3cccnc23)ccc1=O	-36.97%	-25.11%
CCOc1ccc(CC(CNC(=O)c2ccco2)C(N)=O)cc1 (centres unmarked)	-4.036%	-1.702%
CCCS(=O)(=O)N1CCC(NC(=O)c2ccc(C)s2)CC1	-14.55% and 4.904%	5.094%
COCCn1cnnc1Cn1ccnc1-c1ccoc1	-2.659%	-35.1%
O=C(O)C(F)(F)F.O=C(O)C(F)(F)F.[H][C@@]12COC[C@H](C(=O)NCc3ccco3)[C@]1([H])CN(Cc1ccccn1)C2	18.17% and -0.6425%	-4.368%
N#CC1(C(=O)N2CCCN(Cc3cscn3)CC2)CCCCC1	-13.65%	-11.6% and 0.3834%
NC(=O)CC1CCN(C(=O)c2cnc(-c3ccccc3F)s2)CC1	-10.3% and -9.343%	-9.523%
Cc1ccc(CNc2cc3[nH]c(O)nc3cc2C)cc1	14.24%	19.23% and 24.23%
O=C(CN1CC(n2cccn2)C1)NCCC1=CCCCC1	-0.58%	13.14% and -0.8781%
Cc1ccc(-c2[nH]c3ccccc3c2C(=O)O)c(C)c1	0.8542%	30.17%
COCCC(=O)N1CCC(Nc2ncc(Cl)cn2)CC1	9.644%	13.09%
CC(=O)Nc1ccc(Oc2ccc3c(c2)OCO3)nc1	-1.989%	3.898%
Cc1nc(C(Cc2ccsc2)NC(=O)CCN2CCOCC2)sc1C (centres unmarked)	-3.572% and 11.18%	-7.739%
Cc1cccc(C(=O)NCC2CCS(=O)(=O)C2)n1 (centres unmarked)	-3.858%	7.692%
N#CCCN(Cc1cccnc1)C(=O)Cc1ccc(-n2cnnn2)cc1	-7.413%	7.139% and -27.12%
CCOCCNC(=O)CCC1CCCO1 (centres unmarked)	-20.2%	-12.3% and -2.676%
O=C(NCC1CCSCC1)N(CCCO)C1CCc2ccccc21 (centres unmarked)	-35.34%	-24.39%
CCC(=O)c1ccc(OCC(=O)NC(C)c2ncnn2CC)cc1 (centres unmarked)	16.5%	-33.95% and -0.7273%
C1CCCN(CC2CCCN(Cc3noc(C4CC4)n3)C2)CC1 (centres unmarked)	-16.32%	24.72%
CS(=O)(=O)N1CCCC(C(=O)Nc2cnn(Cc3ccc(Cl)cc3)c2)C1 (centres unmarked)	-10.73%	3.203%
Cc1nc(C)n(CC2CN(Cc3nc4ccccc4s3)CCO2)n1 (centres unmarked)	-24.27%	-22.06%
Cn1cc(C2(C)CN(C(=O)COc3ccccc3F)CCO2)cn1 (centres unmarked)	2.691%	-31.93%
COc1ccccc1CC(C)(C)C(=O)NCC(=O)Nc1cccnc1	-2.812%	-13.51% and -2.86%
COc1ncccc1CNC(=O)c1cccnc1O	1.003%	-35.11%
Cc1cc(C)nc(N2CCCC(C)(c3[nH]ncc3C(=O)N(C)C)C2)n1 (centres unmarked)	-11.66% and -21.26%	-15.22%
Cc1ccc(C(=O)N(Cc2ccccc2F)C2CC2)c(=O)[nH]1	-18.52%	-8.326%
COc1ccc(N2Cc3nc(N)ncc3C2=O)cc1Cl	0.9924%	-0.4609%
O=C(NCCn1ccnc1C1CCOC1)c1cccnc1 (centres unmarked)	4.374%	-0.3671%
Cc1csc(N2CCN(C(=O)CCNc3ncccn3)CC2)n1	-13.9%	-2.993%
CC(C)N(C)C(=O)C1=NOC2(CCN(C(=O)NCc3cccnc3)C2)C1 (centres unmarked)	-15.44%	0.3756% and -9.494%
CC(C)N1CCC2(CCCNC2)C1=O.Cl (centres unmarked)	0.113%	-7.487%
c1cc(-c2c[nH]c([C@@H]3COCCN3C3CCCCC3)n2)ccn1	-13.41%	4.691% and -3.212%
N#Cc1cc2c(nc1SCc1cc(O)nc(O)n1)CCCCC2	41.76%	49.04%
CC(C)c1nc(C2CCCN(C(=O)c3ccc4[nH]nnc4c3)C2)no1 (centres unmarked)	-4.38%	10.42%
COc1ncc(Cl)c(NCc2ccc([S+](C)[O-])cc2)n1 (centres unmarked)	4.305%	11.89%
CC(=O)N[C@H]1CCN(c2nc(C)nc3c2c(C)nn3C)C1	9.693%	11.35%
O=C(CCNC(=O)N1CCC(c2ccccc2)C1)N1CCCCC1 (centres unmarked)	13.07%	4.185% and -31.16%
CNC(=O)C1Cn2ccnc2C2(CCN(c3ccc(C)nn3)CC2)O1 (centres unmarked)	-14.5%	4.273% and 1.579%
NC(=O)NCCC(=O)NCc1cccnc1N1CCc2ccccc2C1	13.12%	28.7%
Cc1cc(C)n(C2CN(Cc3noc(C4CC4)n3)C2)n1	-42.04%	27.17%
Cn1cc(CN2CCc3onc(C(=O)Nc4cccnc4)c3C2)cn1	5.704%	21.69%
CN(C)[C@@H]1CCN(C(=O)CC2CC2)[C@H]1Cc1cnn(C)c1.O=C(O)C(F)(F)F	-9.239% and -0.6624%	-16.37%
CN(CC1(O)CCCN(Cc2cccc(F)c2F)C1=O)C1CCCCC1 (centres unmarked)	-5.175%	22.73%
N#Cc1cc(N2CCC(CS(N)(=O)=O)CC2)nc2ccccc12	-9.345%	-7.27%
Cc1ncc(-c2ccnc(N3CC[C@H](O)C3)n2)c(-c2cccnc2)n1	-17.26%	21.69%
COCCOCC(=O)Nc1ccc(C)cc1F	3.862%	28.05% and 5.77%
NC(=O)CN1CCCC(Cc2ccc(N)nn2)C1 (centres unmarked)	-16.23%	-28.01%
CCOc1cc(C(=O)n2cccn2)cc(OCC)c1OCC	15.13%	7.435% and 31.55%

Some entries from above, unchanged:

| compound | A | B |
|---|---|---|
| `Cc1cc(C)n(C2CN(Cc3noc(C4CC4)n3)C2)n1` | -42.04% | 27.17% |
| `O=C(O)c1ccc(S(=O)(=O)Nc2ccccc2CC(F)(F)F)c(F)c1` | 4.006% | -23.77% |
| `COc1ncc(Cl)c(NCc2ccc([S+](C)[O-])cc2)n1` (centres unmarked) | 4.305% | 11.89% |